In US9850206B2, “S1P and/or ATX modulating agents” (BIOGEN MA INC., priority 2012, dated 2017):
Some of these results come from one statement about several compounds together.

Chains of the proteins cited; added tags and fusions are not shown. Lines headed by an entry give the natural chain unless they say otherwise; changes in a name come on top.
UniProt Q99500: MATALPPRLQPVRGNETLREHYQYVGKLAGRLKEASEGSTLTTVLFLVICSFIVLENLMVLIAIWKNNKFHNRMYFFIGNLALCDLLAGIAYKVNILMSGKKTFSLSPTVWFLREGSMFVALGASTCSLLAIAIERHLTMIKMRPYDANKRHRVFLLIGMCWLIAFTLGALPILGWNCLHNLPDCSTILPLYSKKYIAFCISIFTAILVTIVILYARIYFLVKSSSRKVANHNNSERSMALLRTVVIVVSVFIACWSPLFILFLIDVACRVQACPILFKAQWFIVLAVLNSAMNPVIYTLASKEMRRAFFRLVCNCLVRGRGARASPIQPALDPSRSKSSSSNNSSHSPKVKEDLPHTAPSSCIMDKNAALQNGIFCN

These molecules were tested against S1P3 (Homo sapiens, UniProt Q99500) (assay: S1P receptor activity assay (calcium flux, FLIPR TETRA), S1P3). Conditions: read-out: IC50 for S1P3, top concentration 10 μM.
Assay type: cell-based

Structure (SMILES)	IC50 [µM]
CC[C@H]1CC[C@@H](Oc2ccc(C3=CCN(CCC(=O)O)CC3)cc2)CC1 [Example 33, 3-(4-(4-((cis-4-Ethylcyclohexyl)oxy)phenyl)-5,6-dihydropyridin-1(2H)-yl)propanoic acid]	> 5
O=C(O)CCN1CC=C(c2ccc(OC3CCC4(CCCC4)CC3)cc2)CC1 [Example 39, 3-(4-(4-(Spiro[4.5]decan-8-yloxy)phenyl)-5,6-dihydropyridin-1(2H)-yl)propanoic acid]	> 5

Same assay, conditions: top concentration 10 μM, read-out: IC50 for S1P3

Structure (SMILES)	IC50 [µM]
CC(C)(C)[C@H]1CC[C@H](Oc2ccc(C3=CCN(CCCCC(=O)O)CC3)cc2)CC1 [Example 49, 5-(4-(4-((trans-4-(tert-Butyl)cyclohexyl)oxy)phenyl)-5,6-dihydropyridin-1(2H)-yl)pentanoic acid]	> 5
CC[C@H]1CC[C@H](Oc2ccc(C3=CCN(CCCC(=O)O)CC3)cc2)CC1 [Example 29, 4-(4-(4-((trans-4-Ethylcyclohexyl)oxy)phenyl)-5,6-dihydropyridin-1(2H)-yl)butanoic acid]	> 5
CC[C@H]1CC[C@@H](Oc2ccc(C3=CCN(CCCCC(=O)O)CC3)cc2)CC1 [Example 37, 5-(4-(4-((cis-4-Ethylcyclohexyl)oxy)phenyl)-5,6-dihydropyridin-1(2H)-yl)pentanoic acid]	> 5
CC(C)(C)[C@H]1CC[C@H](Oc2ccc(C3=CCN(CCCC(=O)O)CC3)cc2)CC1 [Example 47, 4-(4-(4-((trans-4-(tert-Butyl)cyclohexyl)oxy)phenyl)-5,6-dihydropyridin-1(2H)-yl)butanoic acid]	> 5
CC(C)(C)[C@H]1CC[C@H](Oc2ccc(C3=CCN(CCC(=O)O)CC3)cc2)CC1 [Example 45, 3-(4-(4-((trans-4-(tert-Butyl)cyclohexyl)oxy)phenyl)-5,6-dihydropyridin-1(2H)-yl)propanoic acid]	> 5
CC[C@H]1CC[C@H](Oc2ccc(C3=CCN(CCCCC(=O)O)CC3)cc2)CC1 [Example 31, 5-(4-(4-((trans-4-Ethylcyclohexyl)oxy)phenyl)-5,6-dihydropyridin-1(2H)-yl)pentanoic acid]	> 5
CC[C@H]1CC[C@H](Oc2ccc(C3=CCN(CCC(=O)O)CC3)cc2)CC1 [Example 27, 3-(4-(4-((trans-4-Ethylcyclohexyl)oxy)phenyl)-5,6-dihydropyridin-1(2H)-yl)propanoic acid]	> 5
O=C(O)CCCCN1CC=C(c2ccc(OC3CCC4(CCCC4)CC3)cc2)CC1 [Example 43, 5-(4-(4-(Spiro[4.5]decan-8-yloxy)phenyl)-5,6-dihydropyridin-1(2H)-yl)pentanoic acid]	> 5
CC[C@H]1CC[C@@H](Oc2ccc(C3=CCN(CCCC(=O)O)CC3)cc2)CC1 [Example 35, 4-(4-(4-((cis-4-Ethylcyclohexyl)oxy)phenyl)-5,6-dihydropyridin-1(2H)-yl)butanoic acid]	> 5
